This test in a line: qHTS Assay for Modulators of Lamin A Splicing. As to conditions: HeLa LMNA splicing GFP/RFP minigene ratio, 48 h. The essentials: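 S3 HeLa cells stably expressing lamin A-EGFP splicing minigene plus DsRed2, 600 cells/well, 48 h compound exposure at 37C. Laser-scanning cytometry; analysed as GFP (500-530 nm)/RFP (575-640 nm) total intensity ratio; 0.5% DMSO vehicle.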
The mark [1] stands for this setting: measured here: RFP viability control channel.
The mark [2] stands for this setting: measured here: GFP splicing reporter channel.

Each structure is given as a SMILES string. The list shows a part of the results. These are further read-outs of the screen, such as a control signal, another cell line or another target. No call is given for them. The list favours compounds with an active or inconclusive main result. Words in brackets tell the shape of the fitted curve; partial curves, single points and poor fits give uncertain potencies.

With `CC12CCC(C(=O)Nc3cc(F)ccc3F)(CC1=O)C2(C)C` (stereo unspecified), the AC50 – broadly, the concentration giving half of the maximal activity seen – under setting [1] is 2.51 µM [rising, partial curve, poor fit]. On to `COc1ccc(N(CC(=O)N2c3ccccc3CC2C)S(=O)(=O)c2c(C)noc2C)cc1` (stereo unspecified), for which the AC50 under setting [1] is 22.4 µM [rising, single point].

Regarding `O=c1c2c(nc3c(-c4cccc5ccccc45)c[nH]n13)CCC2`, the AC50 under setting [1] is 35.5 µM [rising, single point]. Same read-out and setting: for `CCOc1ccc(C(=O)NCCS(=O)(=O)N2CCN(c3cccc(Cl)c3)CC2)cc1` the value was 0.501 µM [falling, full curve, poor fit]. On to `O=C(NCCc1ccccc1)c1cc(-c2ccc3c(c2)OCO3)on1`, for which, under setting [1], the AC50 was 2.82 µM [falling, partial curve, poor fit]. Consider `CCOC(=O)N1CCc2c(sc(NCc3ccc(OC)c(Br)c3)c2C(=O)Nc2cc(OC)ccc2OC)C1`, for which the AC50 under setting [1] is 0.0891 µM [falling, full curve, poor fit]. On to `CCn1c(CSCc2ccc(F)cc2)nnc1SCC(=O)N1CCN(c2ccccc2)CC1`, for which the AC50 runs as follows: under setting [2], 35.5 µM [rising, single point]; under setting [1], 31.6 µM [rising, single point].

Consider `CCc1nc(SCC(=O)NCC2CCCO2)c2oc3ccccc3c2n1` (stereo unspecified), for which the AC50 is, setting by setting: under setting [2], 3.55 µM [rising, full curve]; under setting [1], 10 µM [rising, partial curve].

In the case of `O=C(NC(=S)Nc1ccccc1N1CCCC1)c1ccc(-c2cccc([N+](=O)[O-])c2)o1`, under setting [1], the AC50 was 15.8 µM [falling, single point]. For the molecule `COc1ccc2[nH]cc(C3N4CC5(C)CN3CC(C)(C4)C5=O)c2c1` (stereo unspecified), the AC50 is, setting by setting: under setting [2], 3.98 µM [falling, single point]; under setting [1], 1.78 µM [falling, partial curve, poor fit]. On to `COc1ccc(NS(=O)(=O)c2ccc(OC)c(NC(=O)CCC3CCCCC3)c2)cc1`, for which the AC50 under setting [2] is 12.6 µM [rising, partial curve, poor fit] and the AC50 under setting [1] was 35.5 µM [rising, single point]. Regarding `CCc1nnc(N2C(=N)SCC2=O)s1`, under setting [2], the AC50 was 0.0112 µM [falling, full curve, poor fit]. On to `ClCc1nnc(-c2ccccc2)o1`, for which the AC50 under setting [1] was 22.4 µM [rising, partial curve]. Still for that read-out and setting: the same measure for `COc1ccc(/C=C/C(=O)c2ccc[nH]2)c(OC)c1OC`: 7.08 µM [rising, partial curve, poor fit].

With `O=C(NCc1nc(-c2ccccc2)no1)c1cccs1`, the AC50 is 14.1 µM [rising, single point] under setting [2] and 20 µM [rising, single point] under setting [1]. For the molecule `O=C(CCl)N=c1sccn1Cc1ccc(Cl)cc1Cl`, under setting [2], the AC50 is 0.0178 µM [rising, full curve, poor fit]. As to `CC1CCN(c2ncnc3ccccc23)CC1`, the AC50 was 20 µM [rising, single point] under setting [2] and 15.8 µM [rising, single point] under setting [1]. As for `CCOc1ccc(NC(=O)C(=O)N/N=C\c2ccc(CNS(=O)(=O)c3ccccc3)o2)cc1`, under setting [1], the AC50 is 35.5 µM [falling, single point].

Regarding `Cc1sc(NC(=O)CN(Cc2ccccc2)C(=O)C(C)C)c(C(N)=O)c1C`, the AC50 under setting [2] was 11.2 µM [rising, single point] and the AC50 under setting [1] was 12.6 µM [rising, partial curve]. Regarding `O=C(Nc1ccc(O)cc1)c1c(O)c2c([nH]c1=O)CCCC2`, the AC50 under setting [1] is 0.0316 µM [rising, full curve, poor fit]. In the case of `N#CCCn1cc(C(=O)N2CCOCC2)c(-c2ccc3c(c2)OCCO3)n1`, the AC50 under setting [2] is 11.2 µM [rising, partial curve]. With `CCc1cccc(C)c1NC(=O)COC(=O)c1c2c(nc3ccccc13)/C(=C\c1cccs1)CCC2`, the AC50 was 10 µM [rising, partial curve] under setting [2] and 7.94 µM [rising, partial curve, poor fit] under setting [1]. As for `Cc1nn(Cc2ccccc2)c(Cl)c1C(=O)OCC(=O)NC(=O)NC12CC3CC(CC(C3)C1)C2`, the AC50 under setting [1] was 12.6 µM [rising, partial curve]. Consider `Cc1n[nH]c(C)c1N1C(=O)c2cccc3c(N4CCCCCC4)ccc(c23)C1=O`, for which the AC50 by setting is: under setting [2], 22.4 µM [falling, single point]; under setting [1], 12.6 µM [falling, partial curve]. On to `Cn1c(Cc2ccccc2)[n+](C)c2ccccc21`, for which the AC50 under setting [1] is 0.112 µM [falling, full curve, poor fit].

For `O=C(CNc1cccc2ccccc12)N/N=C/c1ccc([N+](=O)[O-])o1`, the AC50 under setting [2] is 3.16 µM [falling, partial curve] and the AC50 under setting [1] is 6.31 µM [rising, single point]. With `COc1cccc(CNC(=O)CCC2CCCN(C(=O)c3ccc(OC)c(F)c3)C2)c1` (stereo unspecified), the AC50 reads like this: under setting [2], 35.5 µM [falling, partial curve, poor fit]; under setting [1], 22.4 µM [falling, partial curve]. Turning to `COc1cccc(CN2CCN(Cc3nc4c(s3)CCCC4)CC2CCO)c1` (stereo unspecified), the AC50 under setting [2] was 3.55 µM [rising, partial curve].

In the case of `Cn1c(NCc2ccco2)nc2c1c(=O)n(Cc1ccc(Br)cc1)c(=O)n2C`, the AC50 is, setting by setting: under setting [2], 5.01 µM [rising, single point]; under setting [1], 15.8 µM [rising, single point]. As for `O=C(NCCCn1ccnc1)c1cc(-c2ccccc2)on1`, the AC50 is 2 µM [falling, partial curve, poor fit] under setting [2] and 0.447 µM [falling, full curve, poor fit] under setting [1]. `O=C(/C=C/c1ccccc1)NCCSCc1ccccc1Cl`: the AC50 under setting [1] was 20 µM [rising, single point].

For the molecule `Cc1ccc(NC(=O)CSc2ncnc3ccccc23)cc1S(=O)(=O)N1CCCCCC1`, under setting [1], the AC50 was 12.6 µM [rising, single point]. For the molecule `Nc1nc(CN2CCN(Cc3ccccc3)CC2)nc(N2CCCc3ccccc32)n1`, the AC50 is, setting by setting: under setting [2], 0.0126 µM [falling, full curve, poor fit]; under setting [1], 31.6 µM [falling, partial curve].

In the case of `O=C(CSc1ccc(Cl)cc1)c1ccco1`, the AC50 under setting [2] is 20 µM [rising, single point].

Turning to `CCN1CCCC(CO)(Cc2ccccc2)C1` (stereo unspecified), under setting [2], the AC50 is 2.51 µM [rising, partial curve]. Take `CC(Sc1ncc(S(=O)(=O)c2ccc(C(C)C)cc2)c(N)n1)C(=O)Nc1ccccc1` (stereo unspecified): the AC50 reads like this: under setting [2], 0.794 µM [falling, full curve]; under setting [1], 0.794 µM [falling, full curve, poor fit].

`CC(C)(C)c1ccc(CN2C3=NCCCN3c3ccccc32)cc1`: the AC50 under setting [1] was 11.2 µM [rising, partial curve]. For `CCOC(=O)c1c(C)nc(C)c(C(=O)OCC)c1-c1ccccc1`, under setting [1], the half-maximal activity concentration (AC50) is 6.31 µM [rising, partial curve, poor fit]. Take `CCOC(=O)c1c(NC(NC(=O)C(C)C)C(Cl)(Cl)Cl)sc2c1CCC2` (stereo unspecified): the AC50 by setting is: under setting [2], 14.1 µM [rising, single point]; under setting [1], 22.4 µM [rising, single point]. Consider `O=C(CSc1ncnc2scc(-c3ccccc3)c12)NCc1ccc2c(c1)OCO2`, for which the AC50 runs as follows: under setting [2], 7.08 µM [rising, partial curve]; under setting [1], 14.1 µM [rising, partial curve]. Turning to `Cn1c(SCC(=O)Nc2cccc(C(=O)O)c2)nnc1-c1cc2cc(Br)ccc2o1`, the AC50 under setting [2] is 0.398 µM [rising, full curve, poor fit]. In the case of `Cc1ccc(N2CC(O)=C(c3nc4ccccc4c(=O)[nH]3)C2=N)cc1C`, the AC50 runs as follows: under setting [2], 0.00891 µM [rising, full curve, poor fit]; under setting [1], 0.0178 µM [rising, full curve, poor fit]. Regarding `Cc1cccc(CSc2nc(=O)c3c(n2C)NC(=O)CC3c2cccc(O)c2)c1` (stereo unspecified), the AC50 under setting [2] is 0.01 µM [rising, full curve, poor fit].

Regarding `O=C(NCCNC[C@@H](O)COc1ccc(O)cc1)N1CCOCC1`, the AC50 was 3.16 µM [falling, single point] under setting [2] and 3.16 µM [falling, single point] under setting [1]. On to `CCc1ccccc1NC(=O)CCCSc1nc2ccccc2s1`, for which the AC50 is 31.6 µM [rising, single point] under setting [2] and 25.1 µM [rising, partial curve] under setting [1]. As to `CC(C)(C)c1ccc(NC(=O)COc2ccc(-n3ccnc3)cc2)cc1`, the AC50 under setting [1] is 14.1 µM [rising, partial curve]. For `COC(=O)C1=C(C(=O)OC)[C@@H]2N(Cc3ccccc3)c3ccccc3[C@@]23C[C@@H](C(=O)OC)N(S(=O)(=O)c2ccc(Br)cc2)C3=N1`, the AC50 under setting [1] is 0.00631 µM [falling, full curve, poor fit].

On to `O=C(Nc1cc2c(cc1Br)OCCCO2)c1ccccc1`, for which the AC50 under setting [2] was 31.6 µM [rising, single point]. Take `CC1Cc2nc(SCC(=O)Nc3ccc4c(c3)OCCO4)n(C)c(=O)c2S1` (stereo unspecified): the AC50 under setting [2] was 14.1 µM [rising, single point] and the AC50 under setting [1] is 14.1 µM [rising, single point]. `CCC(C(=O)NCc1ccc2c(c1)CCN2C(=O)c1ccc(F)cc1)c1ccccc1` (stereo unspecified): the AC50 under setting [2] is 35.5 µM [falling, single point] and the AC50 under setting [1] was 35.5 µM [falling, single point].

In the case of `Cc1ncc(CO)c(/C=N/NC(=O)c2ccc(O)cc2)c1O`, the AC50 under setting [1] was 0.251 µM [rising, full curve, poor fit].

In the case of `CCOC(=O)/C=C/S(=O)(=O)c1ccc(NC(C)=O)cc1`, under setting [1], the AC50 is 17.8 µM [falling, single point]. In the case of `Cc1ccccc1Nc1nc(N)nc(CSc2nc3ccccc3c(=O)n2C)n1`, the AC50 under setting [1] is 22.4 µM [rising, single point]. Regarding `CCc1nc2ccc(C(=O)NCCc3ccc(OC)cc3OC)cc2nc1CC`, the AC50 under setting [1] is 1.12 µM [falling, full curve, poor fit].

These data come from PubChem BioAssay AID1487 (National Center for Advancing Translational Sciences (NCATS), 2009).
